Some entries share one result that the patent states for a list of compounds.
Test system: EGFP-FKBP-LC8TRAP transfected COS1 cells
Assay: Endosome dispersion (EEA1 staining) in trap-transfected cells
Assay type: cell-based
Settings: treatment for 2 h
Procedure: Cell Culture. COS1 cells were cultured in DMEM (CELLGRO®) supplemented with 10% fetal bovine/calf serum (Omega Scientific). Transfection was performed in 80-90% confluent 24-h cultures of COS1 cells using LIPOFECTAMINE™ 2000 (Invitrogen) and OPTI-MEM™ media (GIBCO®) according to the manufacturer's recommendations. Various concentrations (0 nM to 1000 nM) of AP (Ariad Pharmaceuticals Inc.) and PhAP (as described herein) were added to each experimental wells 24 hr. post transfection and incubated for different periods of time before analyzing the cells. For reversibility of endosome dispersion studies, 500 nM of AP/PhAP were used. In each case, the cells were washed well with PBS and supplemented with fresh media before inducing with UV light (10 mins., 4 W, 350 nm) and allowed to recover for various time period at 37° C., before analysis.
Immunostaining and Microscopy. For immunostaining, transiently transfected COS1 cells were fixed with 3.7% formaldehyde at room temperature for 10 min, and subsequent immunostaining was performed as described previously^[2]. Briefly, COS 1 cells grown on 25-mm coverslips were washed 3× with PBS, treated with 3.7% formaldehyde (Sigma) in PBS for fixation, and permeabilized in 0.5% Triton X-100 (Sigma) in PBS at room temperature for 10 min. […] The level of dispersion was quantified by counting 100 cells per coverslip. […]

Structure (SMILES)	maximum of cells transfected with the trap that had dispersed endosomes
CCC(C(=O)N1CCCCC1C(=O)OC(CCc1ccc(OC)c(OC)c1)c1cccc(OCC(=O)NCC(CNC(=O)COc2cccc(C(CCc3ccc(OC)c(OC)c3)OC(=O)C3CCCCN3C(=O)C(CC)c3cc(OC)c(OC)c(OC)c3)c2)CN(C)C)c1)c1cc(OC)c(OC)c(OC)c1 (centres unmarked) [AP, AP20187]	70-75%
CC[C@H](C(=O)N1CCCC[C@H]1C(=O)O[C@H](CCc1ccc(OC)c(OC)c1)c1cccc(OCC(=O)OC(C)c2ccc(C(C)OC(=O)COc3cccc([C@@H](CCc4ccc(OC)c(OC)c4)OC(=O)[C@@H]4CCCCN4C(=O)[C@@H](CC)c4cc(OC)c(OC)c(OC)c4)c3)c([N+](=O)[O-])c2)c1)c1cc(OC)c(OC)c(OC)c1 (some centres unmarked) [PhAP]	70-75%
